From PMC7352952 (International Journal of Molecular Sciences, 2020)

Assay: general procedure: Fmoc solid-phase peptide synthesis; Rink amide resin (0.46 meq/g); DCC and 6-Cl-HOBt
Details: whole synthesis, 210 nm, scale of the general procedure 200 mg resin

## (RRWQWRKKKLG)2-K-Ahx
  final HPLC purity: 95%

## (RRWQWRMKKLG)2-K-Ahx
  final HPLC purity: 94%

## (RRWQWRLKKLG)2-K-Ahx
  final HPLC purity: 92%

## (RRWQWRAKKLG)2-K-Ahx
  final HPLC purity: 95%

## (RRWQWRDKKLG)2-K-Ahx
  final HPLC purity: 97%

## (RRWQWRFKKLG)2-K-Ahx
  final HPLC purity: 91%
